Reference: US20230287071A1
No constants are given. Whether binding was seen depends on the method and setting. A result given as binding can be weak or reduced; the word gives no strength.

B1: … (SEQ ID NO: 443) (peptide)
peptide: EEYAGQITL
B2: … (SEQ ID NO: 453) (peptide)
peptide: SESKVFQLL
B3: … (SEQ ID NO: 455) (peptide)
peptide: QESVHVASYYW
B4: … (SEQ ID NO: 454) (peptide)
peptide: SESSSAFQF
B5: … (SEQ ID NO: 37) (peptide)
peptide: IEQGRVVLW
B6: … (SEQ ID NO: 439) (peptide)
peptide: VEVGDRTDW
B7: SEFGAPRW (SEQ ID NO: 44) (peptide)
peptide: SEFGAPRW
B8: … (SEQ ID NO: 47) (peptide)
peptide: TEVHSSPAQRW
B9: … (SEQ ID NO: 64) (peptide)
peptide: EEYQDSFERY
B10: … (SEQ ID NO: 452) (peptide)
peptide: NEVDGEYRY
B11: … (SEQ ID NO: 451) (peptide)
peptide: REYEDGPLSL
B12: … (SEQ ID NO: 52) (peptide)
peptide: EDNPSGHTY
B13: … (SEQ ID NO: 446) (peptide)
peptide: AENIKKFLY
B14: … (SEQ ID NO: 428) (peptide)
peptide: AEEKAAVTSL
B15: … (SEQ ID NO: 54) (peptide)
peptide: QEISAHRTEF
B16: … (SEQ ID NO: 434) (peptide)
peptide: AEQQQQQMY
B17: … (SEQ ID NO: 68) (peptide)
peptide: NEIDIHSIYF
B18: … (SEQ ID NO: 55) (peptide)
peptide: TEFHMQFSY
B19: … (SEQ ID NO: 422) (peptide)
peptide: EEAQWVRKYF
B20: … (SEQ ID NO: 433) (peptide)
peptide: AEEGPSVPKIY
B21: … (SEQ ID NO: 436) (peptide)
peptide: AEADLSYTWDF
B22: … (SEQ ID NO: 424) (peptide)
peptide: EEHVYESIIRW
B23: SEYVHSSF (SEQ ID NO: 49) (peptide)
peptide: SEYVHSSF
B24: … (SEQ ID NO: 59) (peptide)
peptide: AEIEADRSYQ
B25: … (SEQ ID NO: 426) (peptide)
peptide: AESLFREAL
B26: … (SEQ ID NO: 442) (peptide)
peptide: KESDAGKYY
B27: … (SEQ ID NO: 65) (peptide)
peptide: SESMVESKF
B28: … (SEQ ID NO: 42) (peptide)
peptide: SEENTGKTYF
B29: … (SEQ ID NO: 448) (peptide)
peptide: ALSPVPSHW
B30: … (SEQ ID NO: 66) (peptide)
peptide: AEVTLNNTI
B31: … (SEQ ID NO: 427) (peptide)
peptide: AEMLGSVVGNW
B32: … (SEQ ID NO: 70) (peptide)
peptide: AEAEEAMKRL
B33: … (SEQ ID NO: 437) (peptide)
peptide: HEDPSGSLHL
B34: … (SEQ ID NO: 430) (peptide)
peptide: RELARVVTL
B35: … (SEQ ID NO: 41) (peptide)
peptide: EENTGKTYF
B36: … (SEQ ID NO: 449) (peptide)
peptide: RENDFEPKF
B37: … (SEQ ID NO: 39) (peptide)
peptide: AEAMGKFKQCF
B38: … (SEQ ID NO: 438) (peptide)
peptide: AELDSKILAL
B39: … (SEQ ID NO: 57) (peptide)
peptide: SEATHIITI
B40: … (SEQ ID NO: 429) (peptide)
peptide: RETEDYSKQAL
B41: … (SEQ ID NO: 60) (peptide)
peptide: EEAVRSVAF
B42: … (SEQ ID NO: 45) (peptide)
peptide: EEINELNRMI
B43: … (SEQ ID NO: 450) (peptide)
peptide: REIENGNSF
B44: … (SEQ ID NO: 432) (peptide)
peptide: TEENGFWYL
B45: … (SEQ ID NO: 435) (peptide)
peptide: FETEQALRL
B46: … (SEQ ID NO: 38) (peptide)
peptide: DEVRFFKGNKY
B47: … (SEQ ID NO: 447) (peptide)
peptide: KEFGLDSVEL
B48: … (SEQ ID NO: 53) (peptide)
peptide: KEDNPSGHTY
B49: … (SEQ ID NO: 431) (peptide)
peptide: QELLDFTNW
B50: … (SEQ ID NO: 36) (peptide)
peptide: LEQASRIWSW
B51: … (SEQ ID NO: 444) (peptide)
peptide: SESALQTVI
B52: … (SEQ ID NO: 441) (peptide)
peptide: QEVAQVASAIL
B53: … (SEQ ID NO: 440) (peptide)
peptide: QEVAQVASA
B54: … (SEQ ID NO: 72) (peptide)
peptide: AEVGDIIKVHF
B55: … (SEQ ID NO: 62) (peptide)
peptide: AEYSVHKITSTF
B56: … (SEQ ID NO: 50) (peptide)
peptide: SEYVHSSFSGF
B57: … (SEQ ID NO: 71) (peptide)
peptide: AEVGDIIKV
B58: … (SEQ ID NO: 56) (peptide)
peptide: ALEEGGGYIF
B59: … (SEQ ID NO: 35) (peptide)
peptide: RELVHMINW
B60: … (SEQ ID NO: 51) (peptide)
peptide: VEMTGKHQL
B61: … (SEQ ID NO: 69) (peptide)
peptide: DENIQKFIW
B62: … (SEQ ID NO: 58) (peptide)
peptide: KEMDPSRQSY
B63: … (SEQ ID NO: 67) (peptide)
peptide: TEGAVEVKY
B64: AEYSVHKI (SEQ ID NO: 61) (peptide)
peptide: AEYSVHKI
B65: … (SEQ ID NO: 423) (peptide)
peptide: KEAINLLKNY
B66: … (SEQ ID NO: 40) (peptide)
peptide: REVDPDDSYVF
B67: … (SEQ ID NO: 456) (peptide)
peptide: SESPIRISV
B68: … (SEQ ID NO: 445) (peptide)
peptide: QEVGEITNL
B69: … (SEQ ID NO: 46) (peptide)
peptide: SELGLPKEV

molecular target: HLA-B*44:05 (human); assay: UV peptide-exchange ELISA, yield grade

binding, binds:
B1, B2, B3, B4, B5, B6, B7, B8, B9, B10, B11, B12, B13, B14, B15, B16, B17, B18, B19, B20, B21, B22, B23, B24, B25, B26, B27, B28, B29, B30, B31, B32, B33, B34, B35, B36, B37, B38, B39, B40, B41, B42, B43, B44, B45, B46, B47, B48, B49, B50, B51, B52, B53, B54, B55, B56, B57, B58, B59, B60, B61, B62, B63, B64, B65, B66, B67, B68, B69
